{"source": "PubChem BioAssay AID504808, Drosophila RNAi Screening Center – 2011", "purpose": "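Fly genes required to hold E2F transcription in check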 (primary screen)", "cells": "Drosophila S2 cells", "reagent": "long dsRNA against Drosophila genes", "measured": "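Dual luciferase plate measurements; E2F-specific signal taken as firefly over Renilla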", "scale": "E2F firefly: higher = more E2F reporter activity; Renilla normaliser: higher = more normaliser reporter signal", "rule for the call": "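a knock-down counted as active when the firefly/Renilla E2F signal rose above 50%, a threshold chosen arbitrarily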", "note": "The screen tested about 21,000 reagents; below is an unselected part of those with a known target gene and a result. In the full data, 18 (0.084%) got an active call. 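Raw counts without plate normalisation, one of two replicates; the ratio scores behind the calls were not deposited.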 Not stated in the record: the amount of reagent, the time to read-out."}
{"Gene": "ems", "DRSC id": "DRSC16941", "E2F firefly, rep 1": 98832, "Renilla normaliser, rep 1": 6509, "activity call": "inactive"}
{"Gene": "Vm26Ab", "DRSC id": "DRSC03473", "E2F firefly, rep 1": 1.53e5, "Renilla normaliser, rep 1": 4918, "activity call": "inactive"}
{"Gene": "Ent1", "DRSC id": "DRSC00330", "E2F firefly, rep 1": 86811, "Renilla normaliser, rep 1": 4112, "activity call": "inactive"}
{"Gene": "CG8435", "DRSC id": "DRSC07179", "E2F firefly, rep 1": 65679, "Renilla normaliser, rep 1": 4139, "activity call": "inactive"}
{"Gene": "r-l", "DRSC id": "DRSC17042", "E2F firefly, rep 1": 84008, "Renilla normaliser, rep 1": 3494, "activity call": "inactive"}
{"Gene": "CG9029", "DRSC id": "DRSC03129", "E2F firefly, rep 1": 1.44e5, "Renilla normaliser, rep 1": 4730, "activity call": "inactive"}
{"Gene": "rdgB", "DRSC id": "DRSC20365", "E2F firefly, rep 1": 50245, "Renilla normaliser, rep 1": 3743, "activity call": "inactive"}
{"Gene": "CG1791", "DRSC id": "DRSC18141", "E2F firefly, rep 1": 7611, "Renilla normaliser, rep 1": 780, "activity call": "inactive"}
{"Gene": "Phae2", "DRSC id": "DRSC02555", "E2F firefly, rep 1": 92283, "Renilla normaliser, rep 1": 4178, "activity call": "inactive"}
{"Gene": "pyd3", "DRSC id": "DRSC15459", "E2F firefly, rep 1": 78615, "Renilla normaliser, rep 1": 3211, "activity call": "inactive"}
{"Gene": "CG13743", "DRSC id": "DRSC05139", "E2F firefly, rep 1": 1.49e5, "Renilla normaliser, rep 1": 5509, "activity call": "inactive"}
{"Gene": "CG13743", "DRSC id": "DRSC06414", "E2F firefly, rep 1": 1.34e5, "Renilla normaliser, rep 1": 4602, "activity call": "inactive"}
{"Gene": "Dyb", "DRSC id": "DRSC07208", "E2F firefly, rep 1": 78087, "Renilla normaliser, rep 1": 12720, "activity call": "inactive"}
{"Gene": "mRpS11", "DRSC id": "DRSC15732", "E2F firefly, rep 1": 1.29e5, "Renilla normaliser, rep 1": 5538, "activity call": "inactive"}
{"Gene": "CG14151", "DRSC id": "DRSC10153", "E2F firefly, rep 1": 1.23e5, "Renilla normaliser, rep 1": 6222, "activity call": "inactive"}
{"Gene": "wntD", "DRSC id": "DRSC16423", "E2F firefly, rep 1": 1.09e5, "Renilla normaliser, rep 1": 5581, "activity call": "inactive"}
{"Gene": "Cndp2", "DRSC id": "DRSC04873", "E2F firefly, rep 1": 1.13e5, "Renilla normaliser, rep 1": 4505, "activity call": "inactive"}
{"Gene": "ng2", "DRSC id": "DRSC18803", "E2F firefly, rep 1": 1.12e5, "Renilla normaliser, rep 1": 5430, "activity call": "inactive"}
{"Gene": "CG13627", "DRSC id": "DRSC14629", "E2F firefly, rep 1": 1.20e5, "Renilla normaliser, rep 1": 5027, "activity call": "inactive"}
{"Gene": "su(sable)", "DRSC id": "DRSC18839", "E2F firefly, rep 1": 1.14e5, "Renilla normaliser, rep 1": 5564, "activity call": "inactive"}
{"Gene": "Ugt317A1", "DRSC id": "DRSC04470", "E2F firefly, rep 1": 1.15e5, "Renilla normaliser, rep 1": 4778, "activity call": "inactive"}
{"Gene": "CG17118", "DRSC id": "DRSC02579", "E2F firefly, rep 1": 1.32e5, "Renilla normaliser, rep 1": 4863, "activity call": "inactive"}
{"Gene": "CG15365", "DRSC id": "DRSC18038", "E2F firefly, rep 1": 25425, "Renilla normaliser, rep 1": 2614, "activity call": "inactive"}
{"Gene": "mRpL30", "DRSC id": "DRSC18416", "E2F firefly, rep 1": 1.05e5, "Renilla normaliser, rep 1": 5555, "activity call": "inactive"}
{"Gene": "CG30398", "DRSC id": "DRSC03891", "E2F firefly, rep 1": 1.17e5, "Renilla normaliser, rep 1": 4790, "activity call": "inactive"}
{"Gene": "CG15429", "DRSC id": "DRSC00444", "E2F firefly, rep 1": 1.60e5, "Renilla normaliser, rep 1": 5157, "activity call": "inactive"}
{"Gene": "CG5687", "DRSC id": "DRSC08568", "E2F firefly, rep 1": 77049, "Renilla normaliser, rep 1": 3719, "activity call": "inactive"}
{"Gene": "CG42326", "DRSC id": "DRSC06483", "E2F firefly, rep 1": 1.37e5, "Renilla normaliser, rep 1": 5121, "activity call": "inactive"}
{"Gene": "CG42326", "DRSC id": "DRSC06484", "E2F firefly, rep 1": 1.32e5, "Renilla normaliser, rep 1": 4645, "activity call": "inactive"}

Targets listed so far whose target name starts with P or p:
{"Gene": "Phae2", "DRSC id": "DRSC02555", "E2F firefly, rep 1": 92283, "Renilla normaliser, rep 1": 4178, "activity call": "inactive"}
{"Gene": "pyd3", "DRSC id": "DRSC15459", "E2F firefly, rep 1": 78615, "Renilla normaliser, rep 1": 3211, "activity call": "inactive"}
